Measured values as given in publication PMC10221034 (2023).
Numbering of substitutions follows the chain as printed. These are yes or no findings as the source states them, for the method shown. For some of these results: A result given as binding can be weak or reduced; the word gives no strength.

Assays:
[1] = target: T1, rTpiA K186A (Streptococcus pneumoniae D39) (UniProt Q04JH4); experiment: far-Western, overlay or dot blot; rTpiA (200 ng) separated by SDS-PAGE and transferred onto PVDF; membrane blocked with 5% BSA in TBST, incubated 90 min with 30 µg/mL plasminogen at 25 °C; bound plasminogen probed with rabbit polyclonal anti-plasminogen and HRP secondary antibody; both purified
T1 sequence: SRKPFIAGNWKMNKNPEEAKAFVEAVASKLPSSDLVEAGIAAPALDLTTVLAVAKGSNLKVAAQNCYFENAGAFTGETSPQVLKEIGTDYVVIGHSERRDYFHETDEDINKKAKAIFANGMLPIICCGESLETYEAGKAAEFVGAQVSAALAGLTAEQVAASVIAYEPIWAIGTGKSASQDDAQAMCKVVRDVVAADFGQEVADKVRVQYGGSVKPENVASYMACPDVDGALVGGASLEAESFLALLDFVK

[2] = target: T2, rTpiA K15A (Streptococcus pneumoniae D39) (UniProt Q04JH4); experiment: as above
T2 sequence: T1 sequence with K14A, A185K

[3] = target: T3, rTpiA K189A (Streptococcus pneumoniae D39) (UniProt Q04JH4); experiment: as above
T3 sequence: T1 sequence with A185K, K188A

[4] = target: T4, rTpiA K112A (Streptococcus pneumoniae D39) (UniProt Q04JH4); experiment: as above
T4 sequence: T1 sequence with K111A, A185K

[5] = target: T5, rTpiA K4A (Streptococcus pneumoniae D39) (UniProt Q04JH4); experiment: as above
T5 sequence: T1 sequence with K3A, A185K

[6] = target: T6, site-specific amino acid-substituted rTpiA K252A (Streptococcus pneumoniae D39) (UniProt Q04JH4); experiment: as above
T6 sequence: T1 sequence with A185K, K251A

[7] = target: T6, site-specific amino acid-substituted rTpiA K252A (Streptococcus pneumoniae D39); experiment: SPR; Biacore X100; rTpiA immobilised on CM5 chip by amine coupling; plasminogen 6.25-100 nM injected, contact time 120 s, 20 µL/min; running buffer 100 mM HEPES pH 7.4, 150 mM NaCl, 3 mM EDTA, 0.005% surfactant P20; apparent constants; both purified

Q: With human plasma plasminogen as the substance, how does the binding [1] read?
A: binds

Q: And the binding [2]?
A: binds

Q: And the binding [3]?
A: binds

Q: And the binding [4]?
A: binds

Q: And the binding [5]?
A: binds

Q: What about the binding [6] of the same substance?
A: no binding (tested: 30 µg/mL plasminogen)

Q: And the binding [7]?
A: binds weakly
